Measurements as given in PubChem BioAssay AID602313 (National Center for Advancing Translational Sciences (NCATS), 2012).
In all, about 390,000 compounds went through this assay and about 760 (0.19%) were called active. The shares of active, inactive and inconclusive entries below differ from those in the screen. Calls follow the shape of the dose curve; as a rule, active = well fitted inhibition curve with a large enough effect; inconclusive = small, poorly fitted or top-dose-only effect; inactive = flat fitted curve, though single readings scatter. A potency beside an inconclusive call is a rough fit, not a confirmed value.

assay: qHTS for Inhibitors of Vif-A3F Interactions: qHTS; details: HeLa A3F-eYFP + Vif (tagged APOBEC3F with the HIV-1 protein that degrades it), YFP fluorescence increase; series mostly up to 46.1 µM; activity, negative = active: at the top concentration; also: nearly all actives have a fitted effect of over 65% in size; as to activity, negative = active: % of control where 0% means no effect
Procedure, shortened: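 HeLa cells stably expressing A3F-eYFP plus Vif, plated and incubated overnight at 37 deg C, then exposed to compounds overnight at 37 deg C. Blocked degradation read as raised yellow fluorescence (Ex 488/Em 500-530).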
Potency is read from the fitted curve at half-maximal effect.

SMILES	Potency	activity, negative = active
Cc1cccc(Nc2cc(C)nc(-n3nc(C)cc3C)n2)c1	inconclusive: 3.55 µM [inhibitor, partial curve, poor fit]	–
Cc1cc(C)cc(NC(=S)NC(=O)C2CC2)c1	active: 12.6 µM	–
COC(=O)c1ccc(Nc2cc(C)nc3ccccc23)cc1	inconclusive: 12.6 µM [inhibitor, partial curve, poor fit]	–
O=C(Nc1ccc(Cl)c(C(F)(F)F)c1)c1nc2ccccc2nc1N1CCCCC1	inconclusive: 35.5 µM [inhibitor, single point]	–
COc1ccc(N=C2NC(=O)S/C2=C\c2ccc(N(C)C)cc2)cc1	inconclusive: 11.2 µM [inhibitor, partial curve, poor fit]	–
COc1ccc(C(=O)NC(=S)Nc2ccc(Cc3ccncc3)cc2)cc1	inconclusive: 35.5 µM [inhibitor, partial curve, poor fit]	–
Cc1ccc(NC(=O)CSc2nc3ccc(Nc4nc(N5CCOCC5)nc(N5CCOCC5)n4)cc3s2)cc1	inconclusive: 5.62 µM [inhibitor, full curve]	–
COc1ccc2[nH]c3c(c2c1)CCN1C(=O)C(CC(=O)NCC24CC5CC(CC(C5)C2)C4)C[C@H](C(=O)N(C(C)C)C(C)C)[C@@]31C (some centres undefined)	inconclusive: 22.4 µM [inhibitor, single point]	–
Cc1ccc(Cc2c(-c3ccc(C)cc3)nc3ccc(Br)cn23)cc1	inconclusive: 10 µM [inhibitor, partial curve]	–
Cn1c(SCC(=O)Nc2nc3ccccc3s2)ncc(C(=O)Nc2ccc(Cl)cc2)c1=O	–	inactive: 10.7%
CC1CC(C)(C)N(C(=O)CN2C(=O)c3ccccc3C2=O)c2ccccc21 (centres undefined)	–	inactive: 1.3%
O=C(Nc1ccc(OCC(F)(F)C(F)F)c(C(F)(F)F)c1)c1ccccc1O	–	inactive: -3.27%
COc1ccccc1CNC(=O)c1cc(-c2ccncc2)nc2c(Cl)cccc12	inconclusive: 28.2 µM [inhibitor, partial curve, poor fit]	–
CCOC(=O)c1ccc(NC(=O)CSc2nc(-c3ccc(F)cc3)cc(C(F)(F)F)c2C#N)cc1	inconclusive: 7.08 µM [inhibitor, full curve, poor fit]	–
CC1(C)OC(=O)N(CCc2ccccc2)C1(C)O (centres undefined)	inconclusive: 35.5 µM [inhibitor, single point]	–
CCCCn1c(NCc2ccc3c(c2)OCO3)nc2ccccc21	–	inactive: 0.986%
Cc1cccc(NC(=O)CSc2nc3ccc(N4C(=O)c5ccccc5C4=O)cc3s2)c1C	inconclusive: 15.8 µM [inhibitor, single point]	–
COc1ccc(C2CC(=O)c3cc(-c4nc(-c5ccc(C)cc5)cs4)c(=O)[nH]c3C2)cc1 (centres undefined)	inconclusive: 3.98 µM [inhibitor, full curve]	–
CC(OC(=O)/C(C#N)=C/c1ccc(N(C)C)cc1)C(=O)N(C)Cc1ccccc1 (centres undefined)	active: 22.4 µM	–
CC(Sc1nnc2ccccn12)C(=O)Nc1ccc(N2CCOCC2)cc1 (centres undefined)	inconclusive: 35.5 µM [inhibitor, single point]	–
O=S(=O)(Cc1ccco1)Cc1nc(-c2ccc(Cl)cc2)cs1	inconclusive: 2.82 µM [inhibitor, partial curve, poor fit]	–
CCCCN(C(=O)c1ccc(-c2ccc([N+](=O)[O-])cc2)o1)c1c(N)n(CC(C)C)c(=O)[nH]c1=O	inconclusive: 35.5 µM [inhibitor, single point]	–

Given in markdown: part of the list above

| SMILES | Potency | activity, negative = active |
| --- | --- | --- |
| Cc1cccc(Nc2cc(C)nc(-n3nc(C)cc3C)n2)c1 | inconclusive: 3.55 µM [inhibitor, partial curve, poor fit] | – |
| Cc1cc(C)cc(NC(=S)NC(=O)C2CC2)c1 | active: 12.6 µM | – |
| COC(=O)c1ccc(Nc2cc(C)nc3ccccc23)cc1 | inconclusive: 12.6 µM [inhibitor, partial curve, poor fit] | – |
| O=C(Nc1ccc(Cl)c(C(F)(F)F)c1)c1nc2ccccc2nc1N1CCCCC1 | inconclusive: 35.5 µM [inhibitor, single point] | – |
| COc1ccc(C(=O)NC(=S)Nc2ccc(Cc3ccncc3)cc2)cc1 | inconclusive: 35.5 µM [inhibitor, partial curve, poor fit] | – |
| Cc1ccc(NC(=O)CSc2nc3ccc(Nc4nc(N5CCOCC5)nc(N5CCOCC5)n4)cc3s2)cc1 | inconclusive: 5.62 µM [inhibitor, full curve] | – |
| Cc1ccc(Cc2c(-c3ccc(C)cc3)nc3ccc(Br)cn23)cc1 | inconclusive: 10 µM [inhibitor, partial curve] | – |
| Cn1c(SCC(=O)Nc2nc3ccccc3s2)ncc(C(=O)Nc2ccc(Cl)cc2)c1=O | – | inactive: 10.7% |
| CC1CC(C)(C)N(C(=O)CN2C(=O)c3ccccc3C2=O)c2ccccc21 (centres undefined) | – | inactive: 1.3% |
| O=C(Nc1ccc(OCC(F)(F)C(F)F)c(C(F)(F)F)c1)c1ccccc1O | – | inactive: -3.27% |
| COc1ccccc1CNC(=O)c1cc(-c2ccncc2)nc2c(Cl)cccc12 | inconclusive: 28.2 µM [inhibitor, partial curve, poor fit] | – |
| CCOC(=O)c1ccc(NC(=O)CSc2nc(-c3ccc(F)cc3)cc(C(F)(F)F)c2C#N)cc1 | inconclusive: 7.08 µM [inhibitor, full curve, poor fit] | – |
| CC1(C)OC(=O)N(CCc2ccccc2)C1(C)O (centres undefined) | inconclusive: 35.5 µM [inhibitor, single point] | – |
| Cc1cccc(NC(=O)CSc2nc3ccc(N4C(=O)c5ccccc5C4=O)cc3s2)c1C | inconclusive: 15.8 µM [inhibitor, single point] | – |
| COc1ccc(C2CC(=O)c3cc(-c4nc(-c5ccc(C)cc5)cs4)c(=O)[nH]c3C2)cc1 (centres undefined) | inconclusive: 3.98 µM [inhibitor, full curve] | – |
| O=S(=O)(Cc1ccco1)Cc1nc(-c2ccc(Cl)cc2)cs1 | inconclusive: 2.82 µM [inhibitor, partial curve, poor fit] | – |
| CCCCN(C(=O)c1ccc(-c2ccc([N+](=O)[O-])cc2)o1)c1c(N)n(CC(C)C)c(=O)[nH]c1=O | inconclusive: 35.5 µM [inhibitor, single point] | – |

Next compounds.

SMILES	Potency	activity, negative = active
C=CCNC(=O)/C(C#N)=C/c1cn(-c2ccccc2)nc1-c1ccc(OC)c([N+](=O)[O-])c1	inconclusive: 1.41 µM [inhibitor, full curve, poor fit]	–
CCc1ccc2oc(-c3cccc(NC(=O)COc4ccccc4Cl)c3)nc2c1	inconclusive: 35.5 µM [inhibitor, single point]	–
Cc1ccc(S(=O)(=O)Nc2cc(-c3nn(C)c(=O)c4ccccc34)ccc2N2CCOCC2)cc1	–	inactive: -12.6%
CC(C)CNC(=O)CN1C(=O)NC2(CCc3ccccc32)C1=O (centres undefined)	inconclusive: 6.31 µM [inhibitor, single point]	–
Nc1ccc(SC(F)(F)F)cc1C(=O)c1ccccc1	inconclusive: 3.16 µM [inhibitor, partial curve, poor fit]	–
CCN(CC)c1ccc(C(=O)N/N=C/c2ccc(N3CCOCC3)cc2)cc1	inconclusive: 35.5 µM [inhibitor, single point]	–
O=C(CCN1C(=O)/C(=C/c2cccs2)SC1=S)NNC(=O)c1cccc(O)c1	inconclusive: 25.1 µM [inhibitor, single point]	–
COc1ccc(Cn2c(-c3ccc(OC)cc3)nc3ccccc32)cc1	–	inactive: 5.58%
Cc1nn(Cc2ccc(Cl)c(Cl)c2)c(C)c1NC(=O)c1cc(-c2ccc3c(c2)OCO3)on1	inconclusive: 12.6 µM [inhibitor, single point]	–
Oc1ccccc1-c1nc2cnccn2c1Nc1ccc(Cl)cc1	–	inactive: -3.43%
CCOc1cc(/C=N/NC(=O)c2cc3c(ccc4ccccc43)o2)ccc1O	inconclusive: 35.5 µM [inhibitor, single point]	–
CON/C=N/C(=S)Nc1ncc(C(F)(F)F)cc1Cl	inconclusive: 4.47 µM [inhibitor, full curve, poor fit]	–
COC(=O)c1c(NC(C)=O)sc(C(=O)Nc2ccccc2C)c1C	inconclusive: 31.6 µM [inhibitor, single point]	–
Cc1cccc(COCC(Cc2ccccc2)N2CCN(C(=O)c3cccc(Cl)c3)CCC2=O)c1 (centres undefined)	–	inactive: 3.47%
CCc1ccc(/C=N/NC(=O)c2cc(C)on2)s1	inconclusive: 35.5 µM [inhibitor, single point]	–
O=[N+]([O-])c1ccc(NN=Cc2cccc([N+](=O)[O-])c2)cc1	inconclusive: 2.82 µM [inhibitor, full curve, poor fit]	–
C=CCOc1ccc(C=CC(=O)c2c(O)c(OC)c(OC)c(OC)c2OC)cc1	–	inactive: -22.3%
Cn1c(-c2c(N)n(-c3ccccc3)c3nc4ccccc4nc23)nc2ccccc21	inconclusive: 35.5 µM [inhibitor, single point]	–
CCN(CC(=O)Nc1ccc(OC)cc1)CC(=O)Nc1ccc(Br)cc1F	inconclusive: 14.1 µM [inhibitor, partial curve, poor fit]	–
CCOc1ccc2c(c1)C(=O)C(=O)N2CC1COc2ccccc2O1 (centres undefined)	–	inactive: -23.4%
Cc1ccccc1N=Nc1c(C)[nH]n(C(N)=S)c1=O	inconclusive: 1.26 µM [inhibitor, partial curve, poor fit]	–
CN(Cc1ccc(Cl)cc1Cl)C(=O)c1cccc(S(=O)(=O)NCc2ccccc2)c1	inconclusive: 35.5 µM [inhibitor, single point]	–

SMILES	Potency	activity, negative = active
O=C(Oc1cc(Cl)cc(Cl)c1)c1cnc2n(c1=O)CCS2	inconclusive: 20 µM [inhibitor, single point]	–
O=C1/C(=C\c2ccc([N+](=O)[O-])cc2)CCc2ccccc21	–	inactive: -9.91%
CCCCC(=O)NC(=S)Nc1nnn(CCC)n1	inconclusive: 4.47 µM [inhibitor, single point]	–
Cc1cc2c(cc(C(=O)NCCCN3CCOCC3)n2Cc2ccc(Cl)cc2)o1	–	inactive: -21%
N#C/C(=C/c1ccc(-c2ccc([N+](=O)[O-])cc2)o1)c1nnc(N2CCOCC2)n1-c1ccccc1	inconclusive: 4.47 µM [inhibitor, partial curve, poor fit]	–
CNC(=S)Nc1ccc(C23CC4CC(CC(C4)C2)C3)cc1	inconclusive: 14.1 µM [inhibitor, single point]	–
CCc1ccccc1NC(=O)C1CCCN(S(=O)(=O)c2ccc3[nH]c(=O)ccc3c2)C1 (centres undefined)	inconclusive: 35.5 µM [inhibitor, single point]	–
CC(Sc1nnnn1-c1ccc(Cl)cc1)C(=O)NCC(=O)Nc1ccc(F)c(F)c1F (centres undefined)	–	inactive: -0.159%
Cc1cccc(C(=O)Nc2ccc3nc(SCC(=O)N4CCCC4)sc3c2)c1	inconclusive: 35.5 µM [inhibitor, single point]	–
COc1ccc(-c2cc(-c3cccs3)nc3sc(C#N)c(N)c23)cc1	active: 11.2 µM	–
Cc1ccc(N(CC(O)Cn2c3ccccc3c3ccccc32)S(C)(=O)=O)c(C)c1 (centres undefined)	inconclusive: 35.5 µM [inhibitor, single point]	–
Cc1cc(NC(=O)CSc2n[nH]c(-c3ccccc3Br)n2)no1	inconclusive: 35.5 µM [inhibitor, single point]	–
CC1CC1c1ccc(/C=C(\C#N)C(=O)Nc2ccc(Cl)cc2Cl)o1 (centres undefined)	–	inactive: 7.24%
Cc1ccc(S(=O)(=O)C=CS(=O)(=O)c2ccc(C)cc2)cc1	–	inactive: 1.88%
CC(=O)c1ccc(OC(=O)CCc2nc3ccccc3s2)cc1	inconclusive: 35.5 µM [inhibitor, partial curve, poor fit]	–
COC(=O)C1=C(C)NC(=S)NC1c1ccc(-c2cc(Cl)ccc2Cl)o1 (centres undefined)	inconclusive: 2.51 µM [inhibitor, partial curve, poor fit]	–
C[C@H](CO)N1C[C@H](C)[C@H](CN(C)Cc2ccc(Oc3ccccc3)cc2)Oc2cc(Br)ccc2S1(=O)=O	inconclusive: 35.5 µM [inhibitor, single point]	–
CC(=O)Nc1ccc(S(=O)(=O)N2CCN(CCc3ccccc3)CC2)cc1	–	inactive: -3.76%
NC(=S)N/N=C/c1ccc(-c2ccc(SC(F)F)cc2)o1	inconclusive: 22.4 µM [inhibitor, single point]	–
Oc1cc2c(cc1O)C1c3ccc(O)c(O)c3OCC1(O)C2 (centres undefined)	inconclusive: 31.6 µM [inhibitor, single point]	–
